The other results are listed elsewhere or left out.
Columns and labels:
Test in all cases: log2 fold change, soluble protein after heating vs DMSO (PISA); higher = thermal stabilisation; K562 cells, 10 uM, 30 min; active = over 0.2 and 3.5 SD of the protein, either way, in both replicates (recomputed)
[1] = compound: NC(=O)Nc1cc(-c2cccc(F)c2)sc1C(=O)N[C@H]1CCCNC1
Summary of the method: (§1)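 K562 cells at 2×10^6 cells/mL were exposed to 10 μM compound for 30 min, then aliquots were heated for 3 min across 48°C-58°C, pooled, and extracted in PBS containing 0.5% NP-40 at 4°C. The supernatant after 21,000xg for 90 min was taken as soluble protein and measured by TMTpro 16plex LC-MS/MS with channel sums equalised. Thermal stability is reported relative to control samples, with values from duplicates. Fold changes are given on a log2 scale.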

Sequences of proteins named here, by UniProt entry; tags and fusion partners are left off. A change or cut given only in a name is not applied to a line headed by its entry.
UniProt Q9NZL4: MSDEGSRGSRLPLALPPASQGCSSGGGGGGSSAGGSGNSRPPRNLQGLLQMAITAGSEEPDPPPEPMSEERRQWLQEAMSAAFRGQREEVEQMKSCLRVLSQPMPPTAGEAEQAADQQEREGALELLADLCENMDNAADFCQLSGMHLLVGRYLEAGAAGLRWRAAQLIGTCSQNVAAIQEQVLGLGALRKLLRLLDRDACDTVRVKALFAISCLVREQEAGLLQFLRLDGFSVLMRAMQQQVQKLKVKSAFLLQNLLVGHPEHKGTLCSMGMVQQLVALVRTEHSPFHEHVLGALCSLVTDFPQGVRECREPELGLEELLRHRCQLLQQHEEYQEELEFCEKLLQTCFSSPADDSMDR
UniProt Q92506: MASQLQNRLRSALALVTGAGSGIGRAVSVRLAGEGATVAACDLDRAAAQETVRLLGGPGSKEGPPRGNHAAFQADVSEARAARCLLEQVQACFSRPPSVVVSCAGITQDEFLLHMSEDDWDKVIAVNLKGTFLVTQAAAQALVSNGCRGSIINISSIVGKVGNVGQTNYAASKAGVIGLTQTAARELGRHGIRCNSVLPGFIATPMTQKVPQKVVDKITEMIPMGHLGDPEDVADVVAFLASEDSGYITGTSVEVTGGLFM
UniProt P14735, whole entry, looked up: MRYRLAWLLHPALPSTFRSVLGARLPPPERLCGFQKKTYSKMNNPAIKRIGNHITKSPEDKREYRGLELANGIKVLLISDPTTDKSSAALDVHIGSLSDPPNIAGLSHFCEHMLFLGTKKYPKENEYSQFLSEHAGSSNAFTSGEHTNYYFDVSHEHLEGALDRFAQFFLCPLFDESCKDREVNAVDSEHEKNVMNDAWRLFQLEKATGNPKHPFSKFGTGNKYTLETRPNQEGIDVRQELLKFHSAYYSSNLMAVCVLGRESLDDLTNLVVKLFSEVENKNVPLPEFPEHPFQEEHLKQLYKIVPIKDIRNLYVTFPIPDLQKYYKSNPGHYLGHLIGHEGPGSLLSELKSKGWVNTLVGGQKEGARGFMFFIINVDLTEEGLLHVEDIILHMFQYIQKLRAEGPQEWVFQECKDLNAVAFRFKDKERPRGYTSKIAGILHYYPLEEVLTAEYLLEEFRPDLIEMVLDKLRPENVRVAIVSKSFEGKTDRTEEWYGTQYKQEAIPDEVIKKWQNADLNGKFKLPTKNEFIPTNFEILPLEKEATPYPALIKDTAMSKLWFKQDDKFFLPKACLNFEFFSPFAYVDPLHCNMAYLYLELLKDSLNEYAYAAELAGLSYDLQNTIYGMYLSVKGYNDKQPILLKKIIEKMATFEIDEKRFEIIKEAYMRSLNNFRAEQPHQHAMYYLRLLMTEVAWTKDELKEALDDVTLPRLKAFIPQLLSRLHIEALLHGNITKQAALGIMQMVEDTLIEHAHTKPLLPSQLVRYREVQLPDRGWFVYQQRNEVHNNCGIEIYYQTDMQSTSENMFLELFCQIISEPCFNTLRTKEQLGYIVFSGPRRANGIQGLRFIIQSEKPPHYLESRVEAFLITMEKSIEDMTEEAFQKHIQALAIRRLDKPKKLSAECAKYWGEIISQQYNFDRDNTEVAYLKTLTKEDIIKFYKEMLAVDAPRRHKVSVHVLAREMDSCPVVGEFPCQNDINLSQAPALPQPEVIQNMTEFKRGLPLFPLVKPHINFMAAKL
UniProt P35914: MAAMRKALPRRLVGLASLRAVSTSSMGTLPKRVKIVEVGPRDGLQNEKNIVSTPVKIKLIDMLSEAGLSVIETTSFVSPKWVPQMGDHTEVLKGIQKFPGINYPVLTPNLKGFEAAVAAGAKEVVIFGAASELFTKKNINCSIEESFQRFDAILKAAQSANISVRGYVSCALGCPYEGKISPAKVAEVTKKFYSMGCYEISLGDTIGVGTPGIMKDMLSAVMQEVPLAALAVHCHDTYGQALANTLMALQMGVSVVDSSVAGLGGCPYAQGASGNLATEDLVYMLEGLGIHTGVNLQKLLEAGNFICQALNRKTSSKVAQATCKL
UniProt Q13151: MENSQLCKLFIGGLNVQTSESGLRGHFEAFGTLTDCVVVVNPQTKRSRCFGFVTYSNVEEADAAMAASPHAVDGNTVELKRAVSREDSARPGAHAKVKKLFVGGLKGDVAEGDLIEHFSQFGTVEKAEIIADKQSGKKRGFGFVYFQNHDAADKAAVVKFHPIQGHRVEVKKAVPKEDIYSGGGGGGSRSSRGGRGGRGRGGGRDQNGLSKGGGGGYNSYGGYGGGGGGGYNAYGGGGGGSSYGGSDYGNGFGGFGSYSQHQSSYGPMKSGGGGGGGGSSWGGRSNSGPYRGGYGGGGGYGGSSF
UniProt P31937: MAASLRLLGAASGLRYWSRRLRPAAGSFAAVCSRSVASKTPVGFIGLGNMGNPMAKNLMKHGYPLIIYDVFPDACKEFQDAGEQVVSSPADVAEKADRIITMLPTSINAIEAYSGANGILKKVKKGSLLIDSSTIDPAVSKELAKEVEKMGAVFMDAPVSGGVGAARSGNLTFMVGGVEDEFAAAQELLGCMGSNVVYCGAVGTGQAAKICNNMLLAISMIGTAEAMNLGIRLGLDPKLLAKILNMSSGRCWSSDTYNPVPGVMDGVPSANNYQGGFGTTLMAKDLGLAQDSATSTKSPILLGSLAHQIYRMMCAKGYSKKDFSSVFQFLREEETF
UniProt P09651: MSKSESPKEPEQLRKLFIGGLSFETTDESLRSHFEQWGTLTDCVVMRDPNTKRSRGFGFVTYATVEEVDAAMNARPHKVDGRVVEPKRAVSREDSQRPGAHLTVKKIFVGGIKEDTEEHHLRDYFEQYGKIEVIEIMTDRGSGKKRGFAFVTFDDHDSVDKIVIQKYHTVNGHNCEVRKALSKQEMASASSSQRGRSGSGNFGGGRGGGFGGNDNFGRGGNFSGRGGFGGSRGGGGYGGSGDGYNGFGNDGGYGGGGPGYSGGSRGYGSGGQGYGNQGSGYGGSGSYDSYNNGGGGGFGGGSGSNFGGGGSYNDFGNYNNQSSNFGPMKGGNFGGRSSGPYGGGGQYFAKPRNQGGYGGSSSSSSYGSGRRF

[2] = compound: NC(=O)c1cnc(N[C@@H]2CCCC[C@@H]2N)nc1Nc1cccc(-n2nccn2)c1
Summary of the method: as §1

[3] = compound: NC1(c2ccc(-c3nc4ccn5c(=O)[nH]nc5c4cc3-c3ccccc3)cc2)CCC1
Summary of the method: as §1

[4] = compound: NCC(=O)Nc1ccc(-n2nc(C(F)(F)F)cc2-c2ccc3c(ccc4ccccc43)c2)cc1
Summary of the method: as §1

entinostat = compound: Nc1ccccc1NC(=O)c1ccc(CNC(=O)OCc2cccnc2)cc1 [entinostat]
Summary of the method: as §1

vorinostat = compound: O=C(CCCCCCC(=O)Nc1ccccc1)NO [vorinostat]
Summary of the method: as §1

citarinostat = compound: O=C(CCCCCCNC(=O)c1cnc(N(c2ccccc2)c2ccccc2Cl)nc1)NO [citarinostat]
Summary of the method: as §1

silmitasertib = compound: O=C(O)c1ccc2c(c1)nc(Nc1cccc(Cl)c1)c1ccncc12 [silmitasertib]
Summary of the method: as §1

[5] = compound: O=C1NC(=O)C(c2cnc3ccccn23)=C1c1cn2c3c(cc(F)cc13)CN(C(=O)N1CCCCC1)CC2
Summary of the method: as §1

[6] = compound: c1cc(OCCN2CCCCC2)cc(-c2n[nH]c3ccc(-c4nnc[nH]4)cc23)c1
Summary of the method: as §1

entospletinib = compound: c1cn2cc(-c3ccc4cn[nH]c4c3)nc(Nc3ccc(N4CCOCC4)cc3)c2n1 [entospletinib]
Summary of the method: as §1

Measured: log2 fold change

HSPBP1 isoform 3 (UniProt Q9NZL4)
inactive: [1] 0.003 | [2] -0.002 | [3] -0.152 | [4] -0.016 | entinostat 0.021 | vorinostat 0.006 | citarinostat 0.044 | silmitasertib 0.074 | [5] 0.039 | [6] -0.031 | entospletinib 0.003

HSD17B8 (UniProt Q92506)
inactive: [1] 0.023 | [2] -0.002 | [3] -0.008 | [4] 0.03 | entinostat 0.012 | vorinostat 0.003 | citarinostat 0.001 | silmitasertib -0.005 | [5] 0.044 | [6] 0.046 | entospletinib -0.022

IDE (UniProt P14735)
inactive: [1] 0.012 | [2] -0.073 | [3] -0.06 | [4] -0.033 | entinostat 0.044 | vorinostat 0.016 | citarinostat 0.013 | silmitasertib 0.012 | [5] -0.007 | [6] -0.017 | entospletinib -0.006

Quoted from the entries so far (two entries):
HSPBP1 isoform 3 (UniProt Q9NZL4)
inactive: [1] 0.003 | [2] -0.002 | [3] -0.152 | [4] -0.016 | entinostat 0.021 | vorinostat 0.006 | citarinostat 0.044 | silmitasertib 0.074 | [5] 0.039 | [6] -0.031 | entospletinib 0.003

HSD17B8 (UniProt Q92506)
inactive: [1] 0.023 | [2] -0.002 | [3] -0.008 | [4] 0.03 | entinostat 0.012 | vorinostat 0.003 | citarinostat 0.001 | silmitasertib -0.005 | [5] 0.044 | [6] 0.046 | entospletinib -0.022

(cont.)

HMGCL (UniProt P35914)
inactive: [1] 0.122 | [2] 0.021 | [3] -0.056 | [4] 0.083 | entinostat -0.039 | vorinostat 0.029 | citarinostat 0.047 | silmitasertib -0.107 | [5] -0.001 | [6] 0.021 | entospletinib 0.047

HNRNPA0 (UniProt Q13151)
inactive: [1] 0.08 | [2] 0.042 | [3] 0.224 | [4] -0.03 | entinostat 0.029 | vorinostat -0.034 | citarinostat -0.004 | silmitasertib 0.099 | [5] 0.079 | [6] 0.077 | entospletinib 0.136

HIBADH (UniProt P31937)
inactive: [1] 0.019 | [2] 0.017 | [3] 0.021 | [4] -0.003 | entinostat -0.005 | vorinostat 0.005 | citarinostat 0.011 | silmitasertib -0.026 | [5] 0.095 | [6] -0.029 | entospletinib 0.024

HNRNPA1 (UniProt P09651)
inactive: [1] -0.005 | [2] 0.051 | [3] 0.334 | [4] 0.088 | entinostat -0.104 | vorinostat -0.014 | citarinostat -0.131 | silmitasertib 0.225 | [5] 0.2 | [6] -0.183 | entospletinib 0.046

Source: the supplement of paper PMC10849652
